Assay results taken from the supplement of paper PMC3334620.
The full ranking holds about 33,000 sequences; the median of “E-score (-0.5 to 0.5)” is about -8e-05, and the highest 2% start at about 0.23. The list shows a part of the results.

target: T1, Nrg2 (UniProt P38082); experiment: PBM E-score (8-mer binding enrichment) (E-score (-0.5 to 0.5)); higher = stronger / more preferred TF binding; conditions: protein concentration: 100 nM; construct: GST-full length
T1 sequence: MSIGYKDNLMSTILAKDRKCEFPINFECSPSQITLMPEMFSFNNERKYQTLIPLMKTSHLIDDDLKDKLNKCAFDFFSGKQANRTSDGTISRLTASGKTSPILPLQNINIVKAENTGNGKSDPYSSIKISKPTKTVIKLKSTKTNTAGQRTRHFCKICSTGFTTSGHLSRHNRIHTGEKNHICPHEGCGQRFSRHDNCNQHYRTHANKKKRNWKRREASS
Outline: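 E-scores (a modified Wilcoxon-Mann-Whitney statistic) were assigned by the Universal PBM Analysis Suite to every ungapped eight-base word pooled with its reverse complement. The input came from universal all-10-mer Agilent arrays made double-stranded by primer extension and probed with GST-tagged yeast transcription factors at about 100-200 nM. Fluorescent anti-GST detected bound protein, and masliner normalised the scans.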

Sequence | PBM E-score
GGTCCCCA | 0.0724
GTTGAACA | -0.17
TAAGAAAA | 0.0826
CGTTCCAA | 0.0437
CCACAAAC | 0.0398
GCCCGTAC | -0.171
AGCCCTCA | -0.352
GGTCTGCA | 0.0521
CGCTACGC | -0.194
ACGCTCAT | 0.0679
ATTTCGGG | 0.037
AAAGGGAC | 0.2
ACTGGTAT | -0.037
ACTCGACA | 0.0351
CTTTATAA | -0.0955
ACAATTGC | 0.108
ACATTTAC | -0.0926
CGGCGTAG | -0.0383
CTACGATC | -0.0186
ACCGGGTC | -0.102
GGGCATAC | -0.0877
CGTTTTTA | 0.0591

Sequence | PBM E-score
CTAAAGGC | -0.139
ATTCAGAC | 0.066
CCTAGTGA | -0.111
CTCTGTCA | -0.114
CTTTGTTC | 0.0376
AATACGGA | 0.0626
GGCGCCTA | -0.0964
TAGAGCTA | -0.161
AACGAGAG | 0.132
ATGGTACG | 0.128
GGTCTCAC | -0.00822
AAGGGTGT | 0.0853
CCCACGGA | -0.0902
AGATTAAT | 0.204
ATGCACAC | 0.126
AATTCGTG | 0.099
CCTTGCTC | 0.0643
CAAAGCGA | 0.13
CATGATAG | -0.0209
CGAACTTC | 0.0866
CTAAGCGC | 0.0774
CAGCCTGC | -0.252

Sequence | PBM E-score
ACAAGCAA | 0.116
AAGGACGG | -0.207
CGATGTAC | 0.0253
CCGTTCCG | -0.113
ACCCGCCA | -0.0482
GTCTACAA | -0.138
AGACCCAG | -0.0984
AGCTGCCG | -0.0333
ACCCCAGA | -0.0606
GAATAATC | 0.185
CTCGGACC | 0.0798
CAGATTAA | 0.195
GTCTGAAA | -0.036
AACCGTAA | -0.144
ATCCCCGC | 0.0386
AAGCCAGG | -0.0511
GATTATAC | 0.235
ATAGGTGA | 0.00908
CCGACCAG | 0.003
TGCTGCAA | 0.126
CTACTCGC | 0.0918
CAGAGCAA | 0.113

Sequence | PBM E-score
CCGGAACC | -0.0182
CTGGTGCA | -0.0138
CATGACTC | -0.235
TCCCCCAA | -0.362
TGGCGGAA | -0.217
CTGTGATC | -0.00403
GGATTTAA | 0.00734
ACCGGAAA | -0.00514
AAATCTAT | 0.0789
GCCCATAC | -0.0451
CTTTAATC | 0.037
CAAGGGAA | 0.0785
GACTGTCA | -0.108
TATAGCAA | -0.0234
CAGAAGTC | -0.0776
GTCTTAAA | -0.116
CACGAAAG | -0.00164
AGTGAACC | 0.0737
ACCGCGCC | 0.00956
CATACGTC | -0.187
CGCCCTAA | -0.171
GGCGTCCC | -0.00859

Looked up above:
Value of AAATCTAT under PBM E-score: 0.0789
Value of CATGACTC under PBM E-score: -0.235
Value of TGGCGGAA under PBM E-score: -0.217
Value of GGCGTCCC under PBM E-score: -0.00859

Further records.

Sequence | PBM E-score
ATAATCTA | -0.0211
ATAAGACC | 0.052
CAGCCAGC | -0.115
ACCGGCCT | -0.149
AACCTTGA | 0.146
CGCCGGAA | -0.0299
GACACCAA | 0.0717
CTGTCCCC | -0.0298
ATAATTTA | 0.0946
AGAAGACT | -0.153
ACGTCCAG | -0.159
CATTTGCG | 0.00235
ATCCCTCA | -0.0503
AATACTCT | 0.0614
CTAGCCAA | 0.0477
AGTGCGAA | -0.149
CGTACCCA | -0.0432
AGAATCTC | -0.0801
TACGTTAA | -0.0188
GTTGGAAA | 0.0378
ATTACGGC | 0.0634
GCTCATTA | -0.058
